This note sets out measurements from patent publication US20130158084A1, “Pharmaceutical Composition Comprising Losartin For Treating or Preventing Statin BasedGrug-Induced Muscle Toxicity” (HANALL BIOPHARMA CO., LTD., priority 2011, published 2013).

Molecules are shown by their SMILES. Where two headings read alike, the source gives them in different places.

For data set [1], the system named is Wistar rats. Conditions: for CK Enzyme Concentration in the Blood: oral once a day.
Data set [2] deals with Wistar rats. Particulars: for LDH Enzyme Concentration in the Blood: oral once a day.
Where [3] appears, read: 40 mg/kg atorvastatin alone, 1 week.
[4] abbreviates: 40 mg/kg atorvastatin alone, 2 weeks.
Where [5] appears, read: 40 mg/kg atorvastatin alone, 3 weeks.
The mark [6] stands for this setting: 80 mg/kg atorvastatin alone, 1 week.
Setting [7] is: 80 mg/kg atorvastatin alone, 2 weeks.
Setting [8] is: 80 mg/kg atorvastatin alone, 3 weeks.

On to `CC(C)c1c(C(=O)Nc2ccccc2)c(-c2ccccc2)c(-c2ccc(F)cc2)n1CC[C@@H](O)C[C@@H](O)CC(=O)O` [Atorvastatin, atorvastatin], for which the “Change Rate of CK Enzyme Concentration in the Blood As Compared With the Control Group” value in the data set on Wistar rats [1] (setting [3]) is on record as 11.5%; in the data set with Wistar rats [1] (setting [4]) it was 47.5%; with Wistar rats [1] (setting [5]), 110.5%; with Wistar rats [1] (setting [6]), 17.4%; in the data set with Wistar rats [1] (setting [7]), 85.0%; in the data set on Wistar rats [1] (setting [8]) it was 149.4%. Besides, the “CK Enzyme Concentration in the Blood” value in the data set with Wistar rats [1] (setting [3]) was 600.8 ± 67.2 IU/L; with Wistar rats [1] (setting [4]), 958.8 ± 54.4 IU/L; with Wistar rats [1] (setting [5]) it was 1407.9 ± 117.5 IU/L; in the data set on Wistar rats [1] (setting [6]), 632.2 ± 83.2 IU/L; in the data set on Wistar rats [1] (setting [7]), 1202.8 ± 138.4 IU/L; with Wistar rats [1] (setting [8]) it was 1664.6 ± 149.9 IU/L. The “Change Rate of LDH Enzyme Concentration in the Blood As Compared With the Control Group” value in the data set on Wistar rats [2] (setting [3]) is 9.3%; with Wistar rats [2] (setting [4]), 74.0%; in the data set with Wistar rats [2] (setting [5]), 199.9%; in the data set on Wistar rats [2] (setting [6]), 50.7%; in the data set with Wistar rats [2] (setting [7]), 95.0%; with Wistar rats [2] (setting [8]), 238.7%. Also, the “LDH Enzyme Concentration in the Blood” value was 598.4 ± 48.9 IU/L with Wistar rats [2] (setting [3]); 1259.6 ±125.9 IU/L in the data set on Wistar rats [2] (setting [4]); 2268.2 ± 226.8 IU/L in the data set with Wistar rats [2] (setting [5]); 824.9 ± 109.4 IU/L in the data set with Wistar rats [2] (setting [6]); 1411.6 ± 161.3 IU/L in the data set on Wistar rats [2] (setting [7]).
